Three molecules from paper PMC5689596 can be followed below.

Assay [1] deals with T1, neural pentraxin-1 precursor (Nptx1), endogenous in mouse hypothalamus (mouse (endogenous in hypothalamus)) (UniProt Q62443).
T1 sequence: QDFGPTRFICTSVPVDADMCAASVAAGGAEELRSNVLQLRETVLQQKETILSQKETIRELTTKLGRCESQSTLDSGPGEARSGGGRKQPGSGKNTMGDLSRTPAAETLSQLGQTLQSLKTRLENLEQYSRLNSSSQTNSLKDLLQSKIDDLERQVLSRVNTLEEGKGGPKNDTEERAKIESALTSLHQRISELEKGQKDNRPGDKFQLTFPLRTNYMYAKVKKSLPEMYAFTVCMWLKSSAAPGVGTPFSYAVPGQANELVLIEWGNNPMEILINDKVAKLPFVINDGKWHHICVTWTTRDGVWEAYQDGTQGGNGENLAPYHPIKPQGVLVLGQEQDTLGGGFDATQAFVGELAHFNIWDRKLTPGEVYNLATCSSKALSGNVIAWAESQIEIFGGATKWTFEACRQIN
The assay can be described thus: co-IP; hypothalamus lysate of 4-week old mice given Flag labeled wtMkrn3 or mtMkrn3; Flag or Nptx1 detected; lysis 50 mM NaCl, 50 mM Tris pH 7.4, 1% NP-40, washes with 250 mM NaCl, 4°C.

The target in assay [2] is T1, neural pentraxin-1 precursor (Nptx1), endogenous in mouse hypothalamus (mouse (endogenous in hypothalamus)). Nature of the assay: co-IP; Nptx1-IP from hypothalamus lysate of 4-, 6- and 10-week old mice given Flag labeled Mkrn3 at 3 weeks; Mkrn3 detected by blot; normalised to equal Nptx1.
For assay [3], the target named is T2, Flag labeled wild type Nptx1 (mouse) (UniProt Q62443).
T2 sequence: T1 sequence
Nature of the assay: co-IP; hypothalamus lysate of 4-week old mice given Flag labeled wtNptx1 or mtNptx1; IP and blot for Mkrn3; lysis 50 mM NaCl, 50 mM Tris pH 7.4, 1% NP-40, washes with 250 mM NaCl, 4°C.

No constants are given. Whether binding was seen depends on the method and setting. Binding seen in cells or lysates may run through a third protein. Some binding calls cover weakened binding; strength is not graded here. Tags and fused reporters may be left off the sequences shown.

B1: Flag labeled mutant Mkrn3 without C3HC4 Ring finger motif (347-401) (protein, UniProt Q60764)
chain: MEESTAPIEAHAAAGAEAGAEGGEGVSVPPPPQFEAAGASAGVSSAPLQQASGLAPLLVTPGPAIRRAASLRPAPAEGGGARSGPERNSGSWTKQILCRYYLHGQCKEGDNCRYSHDLSGRRRSRGGQDAQPRASADRGPKMATRWEPPTQEVAEAPPAASSSSLPLIGSAAERGFTEAEIDNAGIRSAAERGFSEAEIDNASLAAGAAAGAGAEGWEGAIEFVPGQPYRGRMVPPHGPEAPLQSPAIEREHMAMGMGMPMPVPMPMPVPMPVPMPLPLCRYAARGQCLRGDRCAYPHGEICDMCGQQALHPWDAAQQEAHRRACVEAHERDMELSFAVQRSMDKVVSSGFVIPSEFWVEEEEEKEKLVQQYKEGMSQKACRYFAGGLGHCPFGEFCFYKHEYPEGWRDQPPRPDGGGSSSAYWHQVLEPVQLREGNVLFKSRKKEHSVLRLANQLLKKLLCLRGSSSFSDDRWLLLQYQLEEYFSLNL
As for B1, the binding result in assay [1] is reported as “no binding”.

B2: Flag labeled wild type Mkrn3 (protein, UniProt Q60764 1-544)
chain: MEESTAPIEAHAAAGAEAGAEGGEGVSVPPPPQFEAAGASAGVSSAPLQQASGLAPLLVTPGPAIRRAASLRPAPAEGGGARSGPERNSGSWTKQILCRYYLHGQCKEGDNCRYSHDLSGRRRSRGGQDAQPRASADRGPKMATRWEPPTQEVAEAPPAASSSSLPLIGSAAERGFTEAEIDNAGIRSAAERGFSEAEIDNASLAAGAAAGAGAEGWEGAIEFVPGQPYRGRMVPPHGPEAPLQSPAIEREHMAMGMGMPMPVPMPMPVPMPVPMPLPLCRYAARGQCLRGDRCAYPHGEICDMCGQQALHPWDAAQQEAHRRACVEAHERDMELSFAVQRSMDKVCGICMEVVYEKADPSDRRFGILFSCNHTYCLRCIRRWRSATQFENRISKSCPQCRVSSGFVIPSEFWVEEEEEKEKLVQQYKEGMSQKACRYFAGGLGHCPFGEFCFYKHEYPEGWRDQPPRPDGGGSSSAYWHQVLEPVQLREGNVLFKSRKKEHSVLRLANQLLKKLLCLRGSSSFSDDRWLLLQYQLEEYFSLNL
With B2, the binding result in assay [1] and in assay [2] was “binds” each time.

B3: Makorin ring finger protein 3 (Mkrn3), endogenous in mouse hypothalamus (protein, UniProt Q60764 1-544)
chain: B2 chain
In the case of B3, the binding entry in assay [3] is listed as “binds”.
